In PMC3842039:
No constants are given. Whether binding was seen depends on the method and setting. Some binding calls cover weakened binding; strength is not graded here. Tags and fused reporters may be left off the sequences shown.

Experiments:
[1] = biological target: AtGIP1 (GCP3-Interacting Protein 1), full length, yeast two-hybrid fusion (Arabidopsis thaliana) (UniProt Q9M0N8); experiment: two-hybrid; yeast Y187 co-transformed with AD-AtGIP1 and BD-AtGIP1 or BD-AtGIP2; β-galactosidase filter (lift) assay
[2] = biological target: T1, AtGIP2, full length, yeast two-hybrid fusion (Arabidopsis thaliana) (UniProt Q9C9T3); experiment: as above
T1 sequence: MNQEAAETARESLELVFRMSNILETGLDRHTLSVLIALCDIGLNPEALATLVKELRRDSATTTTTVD

binding [1]: binds | binding [2]: binds
B1: AtGIP1 (GCP3-Interacting Protein 1), full length, yeast two-hybrid fusion (protein, UniProt Q9M0N8 1-71)
chain: MDEEASRTARESLELVFRMSNILDTGLDRHTLSVLIALCDLGVNPEALATVVKELRRESIPDSVTTTPSIH
